Source: US20180264108A1 (ENCARE BIOTECH B V, published 2018)
These are yes or no findings as the source states them, for the method shown. Some entries that bind do so weakly or less than the wild type.

Biological target: immunizing peptide … (SEQ ID NO: 27)
Test: PEPSCAN ELISA on overlapping linear and CLIPS peptides based on SEQ ID NO:27

B1: antibody 33E3.10 (antibody, V domains shown)
VH: EVKLVESGGGLVKPGGSLKLSCAASGFTFSNSAMTWVRQTPEKRLEWVASISGGGTTYYPDSVKGRFTISRDNARNILYLQMSSLRSEDTAIYYCARSHYWGQGTTLTVSS
VL: DIVMTQSQKFMSTSIGDRVSVTCKASQNVVTNVAWYQQKPGQSPKALIYSASYRYSGVPDRFTGSGSGTDFTLTISNVQSEDLAEYFCQQYNSYPYTFGGGTKLEIK
Question: For B1, which binding is on record?
Answer: binds
